Data source: PubChem BioAssay AID1159578 (Peter MacCallum Cancer Centre, 2015)

Purpose: 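Knock-downs that alter how fast lymphatic endothelial cells migrate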 (primary screen)
Cell system: human lymphatic endothelial cells
Reagents: siRNA pool against human genes, 40 nM
Time to read-out: 48 h after transfection
Measurement: 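Cells stained with dye and imaged after a scratch; covered wound area and nuclei counted, duplicates averaged, migration set against mock wells and turned into a robust z-score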
Direction: migration robust z-score: higher = faster migration into the scratch; migration relative to mock: higher = more scratch area covered than mock; nuclei per well: higher = more cells in the well
Call rule: 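Pools averaging fewer than 3300 nuclei are never called; remaining pools count as changed when migration robust z lies outside -2 to 2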
Calls: active = migration changed; inactive = no migration change, or too few cells
Here is a random part of about 18,000 reagents. In the full data, about 1,030 (5.7%) were called active. 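Inactive calls also include pools with fewer than 3300 nuclei, whose migration was not assessed.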 Raw values are not corrected between plates.

The opening 4 records, to show the layout:
| Target gene | migration robust z-score | migration class with cell-count check | migration relative to mock | nuclei per well, duplicate mean | outcome |
| --- | --- | --- | --- | --- | --- |
| MLH1 | 0.34 | migration z between -2 and 2; enough cells | 0.87 | 6044 | inactive |
| FDCSP | -1.18 | migration z between -2 and 2; enough cells | 0.58 | 6149 | inactive |
| CXorf65 | -0.12 | migration z between -2 and 2; enough cells | 0.85 | 5131 | inactive |
| OR4S2 | 0.05 | migration z between -2 and 2; enough cells | 0.9 | 3974 | inactive |

The list itself, repeating the preview:
| Target gene | migration robust z-score | migration class with cell-count check | migration relative to mock | nuclei per well, duplicate mean | outcome |
| --- | --- | --- | --- | --- | --- |
| MLH1 | 0.34 | migration z between -2 and 2; enough cells | 0.87 | 6044 | inactive |
| FDCSP | -1.18 | migration z between -2 and 2; enough cells | 0.58 | 6149 | inactive |
| CXorf65 | -0.12 | migration z between -2 and 2; enough cells | 0.85 | 5131 | inactive |
| OR4S2 | 0.05 | migration z between -2 and 2; enough cells | 0.9 | 3974 | inactive |
| SCNN1B | -1.48 | migration z between -2 and 2; enough cells | 0.52 | 3934 | inactive |
| MAFK | -0.35 | migration z between -2 and 2; enough cells | 0.8 | 6583 | inactive |
| EVX2 | -2.82 | migration z below -2; enough cells | 0.17 | 4508 | active |
| CT55 | -1.38 | migration z between -2 and 2; enough cells | 0.52 | 6323 | inactive |
| MFSD6 | 0.1 | migration z between -2 and 2; enough cells | 0.91 | 5910 | inactive |
| CACNA1E | -2.08 | migration z below -2; enough cells | 0.4 | 4969 | active |
| OR4C45 | -0.09 | migration z between -2 and 2; enough cells | 0.86 | 6435 | inactive |
| TSBP1 | -0.57 | migration z between -2 and 2; enough cells | 0.74 | 4816 | inactive |
| PAFAH1B3 | 0.44 | migration z between -2 and 2; enough cells | 0.89 | 4574 | inactive |
| C19orf47 | -0.84 | migration z between -2 and 2; enough cells | 0.67 | 4741 | inactive |
| PSMD9 | -1.48 | migration z between -2 and 2; enough cells | 0.52 | 5266 | inactive |
| CDK5RAP2 | 0.64 | migration z between -2 and 2; enough cells | 1.05 | 6832 | inactive |
| HS1BP3 | -0.72 | migration z between -2 and 2; enough cells | 0.7 | 5791 | inactive |
| BTG4 | 0.19 | migration z between -2 and 2; enough cells | 0.94 | 5642 | inactive |
| DUSP10 | -0.47 | migration z between -2 and 2; enough cells | 0.72 | 5080 | inactive |
| DGLUCY | 0.09 | migration z between -2 and 2; enough cells | 0.91 | 6982 | inactive |
| GTF3C4 | 0.13 | migration z between -2 and 2; enough cells | 0.83 | 5335 | inactive |
| OAT | 0.13 | migration z between -2 and 2; enough cells | 0.83 | 5964 | inactive |
| UPRT | 0.08 | migration z between -2 and 2; enough cells | 0.9 | 5603 | inactive |
| CIMIP1 | 0.26 | migration z between -2 and 2; enough cells | 0.95 | 5582 | inactive |
| QTMAN | 2.27 | migration z above 2; enough cells | 1.48 | 4936 | active |
| POLD3 | -4.04 | under 3300 nuclei; migration not judged | 0.02 | 2708 | inactive |
| KIF3B | 0.26 | migration z between -2 and 2; enough cells | 0.86 | 4132 | inactive |
| APOL1 | -0.8 | migration z between -2 and 2; enough cells | 0.65 | 4466 | inactive |
| NHERF2 | 0.23 | migration z between -2 and 2; enough cells | 0.85 | 6170 | inactive |
| PRB3 | 0.56 | migration z between -2 and 2; enough cells | 1.03 | 5239 | inactive |
| KLHL3 | -2 | under 3300 nuclei; migration not judged | 0.38 | 2991 | inactive |
| FABP5 | 0.08 | migration z between -2 and 2; enough cells | 0.82 | 5757 | inactive |
| EGR1 | -2.05 | migration z below -2; enough cells | 0.41 | 4465 | active |
| LSMEM1 | 0.36 | migration z between -2 and 2; enough cells | 0.98 | 5440 | inactive |
| PRUNE1 | 0.06 | migration z between -2 and 2; enough cells | 0.9 | 7708 | inactive |
| LRRC39 | 0.3 | migration z between -2 and 2; enough cells | 0.97 | 5847 | inactive |
| RPL24 | 0.13 | migration z between -2 and 2; enough cells | 0.92 | 4872 | inactive |
| DCAF5 | -0.91 | migration z between -2 and 2; enough cells | 0.65 | 5816 | inactive |
| CFAP95 | -3.71 | under 3300 nuclei; migration not judged | -0.1 | 1856 | inactive |
| OR8B12 | 0.5 | migration z between -2 and 2; enough cells | 1.02 | 5392 | inactive |
| APOL4 | 0.8 | migration z between -2 and 2; enough cells | 1.09 | 5302 | inactive |
| ARL4A | 0.91 | migration z between -2 and 2; enough cells | 0.98 | 6002 | inactive |
| REC8 | 2.13 | migration z above 2; enough cells | 1.43 | 6462 | active |
| DDIT4L | 1.25 | migration z between -2 and 2; enough cells | 1.21 | 5726 | inactive |
| POTEH | -0.66 | migration z between -2 and 2; enough cells | 0.72 | 3689 | inactive |
| CCL1 | 0.06 | migration z between -2 and 2; enough cells | 0.9 | 5874 | inactive |
| MAGEA4 | 0.88 | migration z between -2 and 2; enough cells | 1.12 | 5858 | inactive |
| LCK | -0.7 | migration z between -2 and 2; enough cells | 0.67 | 5824 | inactive |
| C6orf58 | 0.99 | migration z between -2 and 2; enough cells | 1.14 | 6270 | inactive |
| MARCHF2 | -0.38 | migration z between -2 and 2; enough cells | 0.73 | 4482 | inactive |
| CFD | 0.42 | migration z between -2 and 2; enough cells | 0.88 | 6457 | inactive |
| NCOA3 | 1.33 | migration z between -2 and 2; enough cells | 1.06 | 6161 | inactive |
| PYY | -0.99 | migration z between -2 and 2; enough cells | 0.63 | 5827 | inactive |
| SETDB2 | 0.88 | migration z between -2 and 2; enough cells | 0.98 | 4952 | inactive |
| TMEM168 | 2.25 | migration z above 2; enough cells | 1.47 | 5734 | active |
| CFAP210 | 2.25 | migration z above 2; enough cells | 1.46 | 6980 | active |
| HRK | 0.17 | migration z between -2 and 2; enough cells | 0.93 | 5800 | inactive |
| CBX1 | 0.22 | migration z between -2 and 2; enough cells | 0.94 | 6076 | inactive |
| SCN7A | -0.46 | migration z between -2 and 2; enough cells | 0.72 | 7066 | inactive |
| ELSPBP1 | -1.61 | migration z between -2 and 2; enough cells | 0.46 | 5816 | inactive |
| ETS2 | -0.36 | migration z between -2 and 2; enough cells | 0.74 | 4503 | inactive |
| PRAMEF3 (retired record) | 1.29 | migration z between -2 and 2; enough cells | 1.22 | 6122 | inactive |
| RBBP6 | 1.42 | migration z between -2 and 2; enough cells | 1.08 | 6270 | inactive |
| APOL6 | 0.42 | migration z between -2 and 2; enough cells | 1 | 3886 | inactive |
| RMDN3 | -0.24 | migration z between -2 and 2; enough cells | 0.82 | 6085 | inactive |
| CSNK2B | -1.77 | migration z between -2 and 2; enough cells | 0.46 | 3900 | inactive |
| C1orf174 | 0.61 | migration z between -2 and 2; enough cells | 1.04 | 5418 | inactive |
| RPL5 | -1.33 | migration z between -2 and 2; enough cells | 0.54 | 4856 | inactive |
| CLN6 | 0.18 | migration z between -2 and 2; enough cells | 0.93 | 5610 | inactive |
| OR4D9 | 1.58 | migration z between -2 and 2; enough cells | 1.29 | 5206 | inactive |
| OR52I2 | 0.88 | migration z between -2 and 2; enough cells | 1.12 | 5842 | inactive |
| PSKH2 | -0.24 | migration z between -2 and 2; enough cells | 0.76 | 5349 | inactive |
| TENM3 | 0.24 | migration z between -2 and 2; enough cells | 0.95 | 5974 | inactive |
